pIC50: −log10 of the molar value.
System: Plasmodium falciparum
Experiment: Antimalarial activity against Plasmodium falciparum 3D7 by [3H]hypoxanthine uptake
Assay type: functional, organism-based

## O=C(CCCCCCC(=O)Nc1ccccc1)NO [VORINOSTAT]
  pIC50: 6.68
